These are yes or no findings as the source states them, for the method shown. Binding seen in cells or lysates may run through a third protein. Some results given as binding are weak or reduced against the parent protein; the word gives no strength.
Molecular target: T1, Receptor-interacting protein kinase 1 (RIPK1), mouse myocardium (mouse (endogenous in C57BL/6 myocardium)), Q60855
T1 chain: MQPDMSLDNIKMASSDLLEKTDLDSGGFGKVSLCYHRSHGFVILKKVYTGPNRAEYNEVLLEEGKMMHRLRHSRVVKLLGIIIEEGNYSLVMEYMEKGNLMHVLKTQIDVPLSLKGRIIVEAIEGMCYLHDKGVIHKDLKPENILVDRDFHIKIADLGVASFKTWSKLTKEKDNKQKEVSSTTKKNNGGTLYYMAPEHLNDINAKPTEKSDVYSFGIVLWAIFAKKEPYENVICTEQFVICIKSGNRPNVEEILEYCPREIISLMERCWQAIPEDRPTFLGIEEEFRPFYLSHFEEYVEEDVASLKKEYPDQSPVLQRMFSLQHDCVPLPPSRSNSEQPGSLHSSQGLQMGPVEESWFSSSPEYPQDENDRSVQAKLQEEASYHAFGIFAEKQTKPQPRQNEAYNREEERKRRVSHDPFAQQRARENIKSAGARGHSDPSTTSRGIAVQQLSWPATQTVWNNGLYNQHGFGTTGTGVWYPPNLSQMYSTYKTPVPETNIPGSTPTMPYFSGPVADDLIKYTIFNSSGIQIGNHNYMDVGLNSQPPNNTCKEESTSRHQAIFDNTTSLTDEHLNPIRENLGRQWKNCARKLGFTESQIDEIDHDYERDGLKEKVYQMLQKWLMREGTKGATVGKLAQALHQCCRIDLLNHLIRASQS
Assay: co-IP; mouse myocardium lysate, normoxia and hypoxia; immunoprecipitated with anti-LC3 or anti-RIPK1 antibodies, immunoblotted with anti-LC3, anti-RIPK1 or anti-RIPK3
Settings: remark: other sources report otherwise

B1: Receptor-interacting protein kinase 3 (RIPK3), mouse myocardium, Q9QZL0 1-486 (protein)
chain: MSSVKLWPTGASAVPLVSREELKKLEFVGKGGFGVVFRAHHRTWNHDVAVKIVNSKKISWEVKAMVNLRNENVLLLLGVTEDLQWDFVSGQALVTRFMENGSLAGLLQPECPRPWPLLCRLLQEVVLGMCYLHSLNPPLLHRDLKPSNILLDPELHAKLADFGLSTFQGGSQSGSGSGSGSRDSGGTLAYLDPELLFDVNLKASKASDVYSFGILVWAVLAGREAELVDKTSLIRETVCDRQSRPPLTELPPGSPETPGLEKLKELMIHCWGSQSENRPSFQDCEPKTNEVYNLVKDKVDAAVSEVKHYLSQHRSSGRNLSAREPSQRGTEMDCPRETMVSKMLDRLHLEEPSGPVPGKCPERQAQDTSVGPATPARTSSDPVAGTPQIPHTLPFRGTTPGPVFTETPGPHPQRNQGDGRHGTPWYPWTPPNPMTGPPALVFNNCSEVQIGNYNSLVAPPRTTASSSAKYDQAQFGRGRGWQPFHK
For B1, the binding was “binds”.
